Laboratory results reported in patent US8557784B2, “Glycyrrhizinates of morphinan derivatives” (Standard Chem. & Pharm. Co., Ltd., priority 2011, dated 2013).

Assay: Evaluation of taste (bitterness) on the tongue by an expert group
Details: 5 mg on the tongue; scale 0 no bitter, 1 just perceptible, 2 slightly bitter, 3 bitter, 4 more bitter, 5 very bitter

For Dimemorfan phosphate, the “Average Rating (0-5) of bitterness” value was 4.1.

In the case of dextromethorphan glycyrrhizinate, the “Average Rating (0-5) of bitterness” value is reported as 0.2.

In the case of dimemorfan glycyrrhizinate, the “Average Rating (0-5) of bitterness” value is reported as 0.3.
